# The supplement of paper PMC10849652
# Sequences of proteins named here, by UniProt entry; tags and fusion partners are left off. A change or cut given only in a name is not applied to a line headed by its entry.
# UniProt Q7L2Z9: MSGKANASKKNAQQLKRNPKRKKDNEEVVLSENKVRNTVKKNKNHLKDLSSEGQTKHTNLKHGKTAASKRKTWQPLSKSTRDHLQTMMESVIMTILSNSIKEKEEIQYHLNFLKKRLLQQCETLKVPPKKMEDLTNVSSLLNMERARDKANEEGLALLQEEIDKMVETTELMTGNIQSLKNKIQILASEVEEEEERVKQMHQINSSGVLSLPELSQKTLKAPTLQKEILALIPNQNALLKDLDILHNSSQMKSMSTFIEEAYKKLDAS
# UniProt Q9Y6K0: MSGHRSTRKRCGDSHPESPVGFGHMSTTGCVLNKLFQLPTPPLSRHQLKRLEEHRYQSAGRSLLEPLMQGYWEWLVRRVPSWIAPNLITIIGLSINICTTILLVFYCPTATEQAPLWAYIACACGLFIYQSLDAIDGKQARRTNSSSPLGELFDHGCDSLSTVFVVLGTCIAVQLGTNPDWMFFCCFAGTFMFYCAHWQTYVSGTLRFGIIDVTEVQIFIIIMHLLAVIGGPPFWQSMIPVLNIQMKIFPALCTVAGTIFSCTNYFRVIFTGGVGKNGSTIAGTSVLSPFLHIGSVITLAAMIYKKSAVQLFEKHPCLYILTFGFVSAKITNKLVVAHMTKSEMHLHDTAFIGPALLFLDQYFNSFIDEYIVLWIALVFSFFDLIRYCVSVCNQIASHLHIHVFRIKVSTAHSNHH
# UniProt Q53EZ4: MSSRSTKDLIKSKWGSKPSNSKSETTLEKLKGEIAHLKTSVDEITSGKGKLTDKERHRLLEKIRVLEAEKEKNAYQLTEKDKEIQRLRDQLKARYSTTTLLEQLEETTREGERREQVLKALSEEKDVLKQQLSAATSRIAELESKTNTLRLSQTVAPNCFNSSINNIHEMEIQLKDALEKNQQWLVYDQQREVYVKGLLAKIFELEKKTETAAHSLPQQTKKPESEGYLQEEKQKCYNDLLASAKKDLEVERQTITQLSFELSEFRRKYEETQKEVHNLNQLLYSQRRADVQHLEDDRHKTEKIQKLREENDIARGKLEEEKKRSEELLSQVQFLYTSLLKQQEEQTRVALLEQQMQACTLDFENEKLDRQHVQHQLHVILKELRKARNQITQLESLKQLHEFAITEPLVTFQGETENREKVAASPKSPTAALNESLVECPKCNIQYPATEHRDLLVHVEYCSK
# UniProt Q96JB5: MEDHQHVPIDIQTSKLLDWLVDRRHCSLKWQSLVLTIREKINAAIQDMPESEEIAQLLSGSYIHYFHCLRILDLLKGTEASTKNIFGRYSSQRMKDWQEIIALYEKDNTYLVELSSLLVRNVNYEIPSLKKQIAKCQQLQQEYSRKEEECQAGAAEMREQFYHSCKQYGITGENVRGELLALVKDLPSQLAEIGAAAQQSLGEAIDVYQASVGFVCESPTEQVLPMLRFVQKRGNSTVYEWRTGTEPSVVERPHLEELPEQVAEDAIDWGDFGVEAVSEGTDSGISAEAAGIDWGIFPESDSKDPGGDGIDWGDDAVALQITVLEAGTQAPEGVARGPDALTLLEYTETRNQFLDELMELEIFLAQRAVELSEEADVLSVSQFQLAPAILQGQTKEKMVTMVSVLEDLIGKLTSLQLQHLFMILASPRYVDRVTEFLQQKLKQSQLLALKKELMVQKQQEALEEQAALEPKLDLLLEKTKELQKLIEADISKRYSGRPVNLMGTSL
# UniProt Q5VT06: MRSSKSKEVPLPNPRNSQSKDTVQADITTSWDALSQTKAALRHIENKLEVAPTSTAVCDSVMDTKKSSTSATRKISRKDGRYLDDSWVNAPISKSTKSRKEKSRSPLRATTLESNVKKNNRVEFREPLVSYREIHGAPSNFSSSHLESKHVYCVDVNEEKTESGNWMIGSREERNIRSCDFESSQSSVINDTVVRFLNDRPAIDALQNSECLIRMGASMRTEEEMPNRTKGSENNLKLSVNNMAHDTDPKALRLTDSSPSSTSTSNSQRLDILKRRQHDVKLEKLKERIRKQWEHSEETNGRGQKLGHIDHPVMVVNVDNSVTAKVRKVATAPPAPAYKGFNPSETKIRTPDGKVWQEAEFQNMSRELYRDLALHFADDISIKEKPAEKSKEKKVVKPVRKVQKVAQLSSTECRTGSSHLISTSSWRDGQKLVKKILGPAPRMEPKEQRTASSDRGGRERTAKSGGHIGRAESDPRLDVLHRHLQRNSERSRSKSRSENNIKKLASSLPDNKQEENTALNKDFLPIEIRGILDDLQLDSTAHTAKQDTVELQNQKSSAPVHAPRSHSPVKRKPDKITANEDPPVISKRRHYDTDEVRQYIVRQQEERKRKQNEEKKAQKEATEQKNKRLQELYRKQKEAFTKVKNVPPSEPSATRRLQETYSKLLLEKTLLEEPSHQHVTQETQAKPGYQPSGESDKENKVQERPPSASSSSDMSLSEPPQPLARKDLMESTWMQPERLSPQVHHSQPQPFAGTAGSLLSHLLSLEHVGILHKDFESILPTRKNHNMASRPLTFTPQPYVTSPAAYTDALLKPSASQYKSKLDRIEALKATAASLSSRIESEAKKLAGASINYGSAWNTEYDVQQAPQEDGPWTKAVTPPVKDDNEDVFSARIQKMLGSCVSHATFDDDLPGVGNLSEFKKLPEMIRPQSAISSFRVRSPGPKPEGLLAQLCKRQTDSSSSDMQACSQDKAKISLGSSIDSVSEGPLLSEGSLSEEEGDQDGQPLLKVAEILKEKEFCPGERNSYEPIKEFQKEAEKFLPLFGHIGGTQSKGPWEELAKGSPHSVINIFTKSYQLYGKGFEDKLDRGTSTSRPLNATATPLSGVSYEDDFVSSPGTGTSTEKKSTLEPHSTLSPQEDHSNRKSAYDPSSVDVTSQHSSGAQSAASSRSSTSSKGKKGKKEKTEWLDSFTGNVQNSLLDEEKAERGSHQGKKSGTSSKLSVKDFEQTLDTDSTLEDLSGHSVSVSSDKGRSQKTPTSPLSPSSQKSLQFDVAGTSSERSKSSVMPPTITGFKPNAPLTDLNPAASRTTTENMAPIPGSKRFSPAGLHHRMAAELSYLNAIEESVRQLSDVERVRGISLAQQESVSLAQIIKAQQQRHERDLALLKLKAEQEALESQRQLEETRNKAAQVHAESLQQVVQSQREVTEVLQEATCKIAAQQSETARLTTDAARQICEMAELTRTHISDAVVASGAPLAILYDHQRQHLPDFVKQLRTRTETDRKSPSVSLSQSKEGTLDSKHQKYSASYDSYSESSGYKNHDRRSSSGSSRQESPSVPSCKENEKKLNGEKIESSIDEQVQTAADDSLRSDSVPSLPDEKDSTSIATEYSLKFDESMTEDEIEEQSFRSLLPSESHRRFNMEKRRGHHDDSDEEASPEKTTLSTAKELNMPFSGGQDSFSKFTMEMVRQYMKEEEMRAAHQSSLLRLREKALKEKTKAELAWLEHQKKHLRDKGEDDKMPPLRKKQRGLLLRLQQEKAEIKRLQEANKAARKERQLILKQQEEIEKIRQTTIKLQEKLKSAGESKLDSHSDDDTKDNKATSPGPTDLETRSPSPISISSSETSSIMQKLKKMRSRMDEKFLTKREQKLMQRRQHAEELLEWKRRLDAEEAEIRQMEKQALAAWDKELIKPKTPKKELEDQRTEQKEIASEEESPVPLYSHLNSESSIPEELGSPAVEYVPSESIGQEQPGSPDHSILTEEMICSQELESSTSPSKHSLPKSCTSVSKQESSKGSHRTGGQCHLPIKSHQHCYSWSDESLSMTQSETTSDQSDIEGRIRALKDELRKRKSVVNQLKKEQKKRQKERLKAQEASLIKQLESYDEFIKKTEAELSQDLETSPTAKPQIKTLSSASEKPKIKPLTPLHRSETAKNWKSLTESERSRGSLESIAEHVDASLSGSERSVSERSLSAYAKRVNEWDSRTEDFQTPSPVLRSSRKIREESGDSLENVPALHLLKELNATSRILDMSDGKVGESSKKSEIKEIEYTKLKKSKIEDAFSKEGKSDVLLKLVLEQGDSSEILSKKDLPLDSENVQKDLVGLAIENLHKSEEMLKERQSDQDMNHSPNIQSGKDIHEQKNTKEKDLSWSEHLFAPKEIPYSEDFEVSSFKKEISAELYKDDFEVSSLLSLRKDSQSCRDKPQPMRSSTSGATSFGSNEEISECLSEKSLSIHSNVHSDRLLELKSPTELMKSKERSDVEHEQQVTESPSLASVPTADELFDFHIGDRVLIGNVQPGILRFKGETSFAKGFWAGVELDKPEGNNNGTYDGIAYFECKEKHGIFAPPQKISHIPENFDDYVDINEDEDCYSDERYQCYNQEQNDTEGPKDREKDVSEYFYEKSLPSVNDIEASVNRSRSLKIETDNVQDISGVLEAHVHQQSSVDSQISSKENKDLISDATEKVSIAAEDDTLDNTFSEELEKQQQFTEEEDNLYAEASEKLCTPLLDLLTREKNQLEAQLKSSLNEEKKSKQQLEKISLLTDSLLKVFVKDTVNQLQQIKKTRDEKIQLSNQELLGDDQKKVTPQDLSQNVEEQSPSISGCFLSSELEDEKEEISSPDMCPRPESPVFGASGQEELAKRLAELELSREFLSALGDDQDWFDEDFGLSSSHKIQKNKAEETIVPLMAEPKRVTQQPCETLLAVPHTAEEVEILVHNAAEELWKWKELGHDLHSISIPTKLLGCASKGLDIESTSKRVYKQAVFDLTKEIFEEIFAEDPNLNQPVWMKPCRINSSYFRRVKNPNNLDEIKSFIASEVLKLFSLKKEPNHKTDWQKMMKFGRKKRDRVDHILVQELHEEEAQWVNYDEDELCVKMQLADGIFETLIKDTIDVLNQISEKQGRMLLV
# UniProt O00748: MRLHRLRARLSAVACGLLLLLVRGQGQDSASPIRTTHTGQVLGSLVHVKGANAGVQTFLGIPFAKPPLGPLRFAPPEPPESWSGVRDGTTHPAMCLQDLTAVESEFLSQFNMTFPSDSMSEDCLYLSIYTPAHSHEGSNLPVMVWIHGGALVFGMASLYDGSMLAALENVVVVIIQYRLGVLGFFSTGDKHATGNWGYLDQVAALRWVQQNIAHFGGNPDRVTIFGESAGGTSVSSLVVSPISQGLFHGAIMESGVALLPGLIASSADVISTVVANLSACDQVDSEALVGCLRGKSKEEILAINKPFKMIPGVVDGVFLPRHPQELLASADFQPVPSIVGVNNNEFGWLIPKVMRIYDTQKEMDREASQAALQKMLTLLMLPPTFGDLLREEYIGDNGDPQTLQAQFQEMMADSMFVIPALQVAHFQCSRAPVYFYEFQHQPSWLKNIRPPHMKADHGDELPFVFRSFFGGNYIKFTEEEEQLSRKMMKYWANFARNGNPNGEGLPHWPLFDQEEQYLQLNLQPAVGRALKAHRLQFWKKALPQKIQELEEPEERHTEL
# UniProt P06493, whole entry, looked up: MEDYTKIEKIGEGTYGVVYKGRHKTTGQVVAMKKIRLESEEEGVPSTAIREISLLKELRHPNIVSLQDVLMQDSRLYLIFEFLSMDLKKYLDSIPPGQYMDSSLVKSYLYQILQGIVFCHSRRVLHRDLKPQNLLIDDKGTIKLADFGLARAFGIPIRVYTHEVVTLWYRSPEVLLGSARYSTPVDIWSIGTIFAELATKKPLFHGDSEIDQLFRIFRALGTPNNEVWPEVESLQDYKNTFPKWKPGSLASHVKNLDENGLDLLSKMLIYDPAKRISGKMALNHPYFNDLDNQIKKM
# UniProt O76039: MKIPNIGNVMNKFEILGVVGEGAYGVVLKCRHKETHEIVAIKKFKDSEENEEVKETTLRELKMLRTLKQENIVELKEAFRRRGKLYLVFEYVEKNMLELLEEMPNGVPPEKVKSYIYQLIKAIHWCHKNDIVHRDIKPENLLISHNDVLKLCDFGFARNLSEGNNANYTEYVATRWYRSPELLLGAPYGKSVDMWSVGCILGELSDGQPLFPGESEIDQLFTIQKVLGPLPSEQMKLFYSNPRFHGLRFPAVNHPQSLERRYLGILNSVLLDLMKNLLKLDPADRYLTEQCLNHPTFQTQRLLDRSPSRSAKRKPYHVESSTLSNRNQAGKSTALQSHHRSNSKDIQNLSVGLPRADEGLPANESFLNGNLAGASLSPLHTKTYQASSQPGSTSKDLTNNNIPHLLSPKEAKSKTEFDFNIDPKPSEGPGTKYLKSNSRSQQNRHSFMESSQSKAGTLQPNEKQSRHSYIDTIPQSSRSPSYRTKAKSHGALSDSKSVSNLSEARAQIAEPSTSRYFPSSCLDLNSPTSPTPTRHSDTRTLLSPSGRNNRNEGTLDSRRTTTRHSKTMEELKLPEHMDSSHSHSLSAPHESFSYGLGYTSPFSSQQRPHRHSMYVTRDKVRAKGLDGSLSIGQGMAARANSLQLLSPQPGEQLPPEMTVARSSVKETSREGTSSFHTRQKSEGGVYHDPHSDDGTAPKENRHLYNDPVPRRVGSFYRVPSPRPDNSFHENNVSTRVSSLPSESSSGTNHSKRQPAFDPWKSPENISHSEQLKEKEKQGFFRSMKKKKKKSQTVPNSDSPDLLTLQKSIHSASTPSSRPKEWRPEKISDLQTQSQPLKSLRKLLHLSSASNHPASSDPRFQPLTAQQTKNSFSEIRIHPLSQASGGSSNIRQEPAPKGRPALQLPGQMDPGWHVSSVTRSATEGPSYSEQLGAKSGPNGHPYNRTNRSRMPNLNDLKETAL
# The other results are listed elsewhere or left out.
# What was measured:
# Assay in all cases: log2 fold change, soluble protein after heating vs DMSO (PISA); higher = thermal stabilisation; K562 lysate, 10 uM; active = over 0.2 and 3.5 SD of the protein, either way, in both replicates (recomputed)
# [1] = compound: C#Cc1cccc(Nc2ncnc3cc(OCCOC)c(OCCOC)cc23)c1 [erlotinib]
# Outline: (§1)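 Dounce homogenisation of K562 pellets in PBS pH 7.4 with 1 mM MgCl2 produced a crude extract, used at 1 mg/mL protein. Exposure to 10 μM compound lasted 30 min, and aliquots were then heated for 3 min across 48°C-58°C, pooled and brought to 0.5% NP-40 at 4°C. The supernatant after 21,000xg for 90 min was quantified by TMTpro 16plex LC-MS/MS with channel sums equalised. Duplicate values are given as log-two fold change in thermal stability relative to solvent controls.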
# [2] = compound: C/C(=N\NC(=O)C1=CC(=CC=C1)S(=O)(=O)N2CCOCC2)/C3=C(C=CC(=C3)Cl)O
# Outline: as §1
# [3] = compound: C1=CC(=CC=C1C2=NC3=C(N2)C=C(C=C3)C(=O)N)OC4=CC=C(C=C4)Cl
# Outline: as §1
# [4] = compound: C1=CC2=C(C=CC(=C2)/C=C\3/C(=O)NC(=NCC4=CC=CS4)S3)N=C1
# Outline: as §1
# [5] = compound: C1=CC2=NC=CN=C2C=C1/C=C/3\C(=O)NC(=O)S3
# Outline: as §1
# [6] = compound: C1=CC=C(C=C1)C2=NC(=C(N2)C3=CC=NC=C3)C4=CC(=C(C=C4)Cl)O
# Outline: as §1
# [7] = compound: C1=CC=C2C(=C1)C3=NNC4=CC=CC(=C43)C2=O
# Outline: as §1
# [8] = compound: C1CCN(C1)C(=O)NC2=CC=CC(=C2)NC3=NC=C(C(=N3)NCCC4=CN=CN4)Br
# Outline: as §1
# [9] = compound: C1CN(CCC1(CC2=CC=C(C=C2)Cl)N)C3=NC=NC4=C3C=CN4
# Outline: as §1
# [10] = compound: C1COCCN1CCN2C3=CC=CC=C3N=C2NC(=O)C4=CC(=CC=C4)[N+](=O)[O-] [IRAK-1-4 Inhibitor I]
# Outline: as §1
Target,log2 fold change [1],log2 fold change [2],log2 fold change [3],log2 fold change [4],log2 fold change [5],log2 fold change [6],log2 fold change [7],log2 fold change [8],log2 fold change [9],log2 fold change [10]
CENPQ (UniProt Q7L2Z9),inactive: -0.064,inactive: -0.011,inactive: 0.057,inactive: 0.098,inactive: 0.078,inactive: 0.016,inactive: 0.033,inactive: -0.069,inactive: 0.111,inactive: -0.012
CEPT1 (UniProt Q9Y6K0),inactive: 0.025,inactive: -0.005,active: -0.216,inactive: 0.035,inactive: 0.032,inactive: -0.023,inactive: -0.015,inactive: 0,inactive: 0.081,inactive: 0.072
CEP55 (UniProt Q53EZ4),inactive: -0.08,inactive: -0.07,inactive: 0.028,inactive: -0.003,inactive: -0.073,inactive: 0.034,inactive: 0.062,inactive: 0.122,inactive: -0.046,inactive: -0.013
CDK5RAP3 isoform 4 (UniProt Q96JB5),inactive: 0.009,inactive: -0.068,inactive: -0.011,inactive: -0.018,inactive: 0.031,inactive: -0.002,inactive: -0.014,inactive: -0.016,inactive: 0.016,inactive: 0.022
CDV3 (UniProt Q9UKY7),inactive: -0.004,inactive: 0.047,inactive: -0.017,inactive: -0.014,inactive: 0.007,inactive: 0.016,inactive: 0.063,inactive: 0.024,inactive: 0.002,inactive: -0.017
CDK5RAP1 (UniProt Q96SZ6),inactive: -0.059,inactive: 0.007,inactive: -0.029,inactive: 0.005,active: -0.392,inactive: 0.043,inactive: 0.016,inactive: -0.016,inactive: 0.041,inactive: -0.018
CEP170 (UniProt Q5SW79),inactive: 0.01,inactive: 0.011,inactive: 0.007,inactive: -0.136,inactive: -0.212,inactive: -0.021,inactive: -0.141,inactive: -0.05,inactive: 0.008,inactive: -0.021
CFDP1 (UniProt Q9UEE9),inactive: -0.027,inactive: -0.023,inactive: 0.067,inactive: -0.024,inactive: -0.02,inactive: -0.004,inactive: 0.033,inactive: -0.03,inactive: 0.011,inactive: -0.017
CENPE (UniProt Q02224),inactive: 0.019,inactive: -0.019,inactive: 0.013,inactive: -0.025,inactive: -0.02,inactive: 0.015,inactive: -0.039,inactive: -0.057,inactive: 0.041,inactive: 0.025
CEP350 (UniProt Q5VT06),inactive: -0.036,inactive: -0.052,inactive: -0.009,inactive: -0.054,inactive: -0.014,inactive: 0.004,inactive: 0.046,inactive: 0.028,inactive: -0.021,inactive: -0.049
CDK19 (UniProt Q9BWU1),inactive: 0.007,inactive: -0.272,inactive: 0.024,inactive: 0.098,inactive: 0.039,inactive: -0.015,inactive: 0.254,inactive: -0.075,inactive: -0.051,inactive: -0.019
CENPF (UniProt P49454),inactive: 0.008,inactive: 0.014,inactive: 0.004,inactive: 0.033,inactive: -0.032,inactive: 0.014,inactive: -0.013,inactive: -0.005,inactive: 0.047,inactive: -0.002
CD97 (UniProt P48960),inactive: -0.018,inactive: 0.014,inactive: -0.022,inactive: -0.025,inactive: 0.005,inactive: -0.011,inactive: 0.055,inactive: -0.014,inactive: 0.027,inactive: 0.024
CDK2AP1 (UniProt O14519),inactive: 0.039,inactive: -0.082,inactive: -0.066,inactive: 0.024,inactive: 0.022,inactive: -0.085,inactive: -0.032,inactive: 0.129,inactive: 0.079,inactive: 0.011
CDK16 isoform 2 (UniProt Q00536),inactive: -0.061,inactive: 0.002,inactive: 0.016,inactive: 0,inactive: -0.005,inactive: -0.017,inactive: 0.151,inactive: 0.004,inactive: -0.007,inactive: 0.03
CGGBP1 (UniProt Q9UFW8),inactive: -0.038,inactive: 0.057,inactive: 0.007,inactive: -0.011,inactive: -0.035,inactive: 0.019,inactive: -0.023,inactive: -0.046,inactive: 0.026,inactive: 0.011
CEMIP2 (UniProt Q9UHN6),inactive: -0.027,inactive: -0.01,inactive: -0.051,inactive: -0.039,inactive: 0.064,inactive: 0.002,inactive: 0.059,inactive: -0.056,inactive: -0.002,inactive: 0.019

# Copied from the list:
# log2 fold change [8], CDK19 (UniProt Q9BWU1) reads inactive: -0.075
# log2 fold change [2], CEP350 (UniProt Q5VT06) reads inactive: -0.052

# Some of the entries so far, with bars between the fields:
Target | log2 fold change [1] | log2 fold change [2] | log2 fold change [3] | log2 fold change [4] | log2 fold change [5] | log2 fold change [6] | log2 fold change [7] | log2 fold change [8] | log2 fold change [9] | log2 fold change [10]
CDK5RAP1 (UniProt Q96SZ6) | inactive: -0.059 | inactive: 0.007 | inactive: -0.029 | inactive: 0.005 | active: -0.392 | inactive: 0.043 | inactive: 0.016 | inactive: -0.016 | inactive: 0.041 | inactive: -0.018
CEP170 (UniProt Q5SW79) | inactive: 0.01 | inactive: 0.011 | inactive: 0.007 | inactive: -0.136 | inactive: -0.212 | inactive: -0.021 | inactive: -0.141 | inactive: -0.05 | inactive: 0.008 | inactive: -0.021

# More records.

Target,log2 fold change [1],log2 fold change [2],log2 fold change [3],log2 fold change [4],log2 fold change [5],log2 fold change [6],log2 fold change [7],log2 fold change [8],log2 fold change [9],log2 fold change [10]
CES2 isoform 4 (UniProt O00748),inactive: -0.014,inactive: 0.006,inactive: -0.012,inactive: 0.041,inactive: -0.035,inactive: 0.087,inactive: -0.067,inactive: 0.053,inactive: -0.031,inactive: 0.075
CETN3 (UniProt O15182),inactive: 0.003,inactive: -0.048,inactive: 0.019,inactive: -0.053,inactive: -0.095,inactive: 0.001,inactive: -0.01,inactive: 0.013,inactive: -0.031,inactive: 0.052
CDK1 (UniProt P06493),inactive: -0.038,inactive: 0.046,inactive: -0.019,inactive: -0.031,inactive: -0.002,inactive: -0.01,inactive: -0.051,inactive: -0.007,inactive: -0.002,inactive: -0.017
CDK11A (UniProt Q9UQ88),inactive: 0.053,,inactive: -0.128,,inactive: -0.037,inactive: 0.027,,,,inactive: -0.009
CDKL5 (UniProt O76039),,inactive: -0.216,,inactive: -0.08,,,inactive: 0.339,inactive: 0.423,inactive: 0.085,
CDCA4 (UniProt Q9BXL8),,inactive: -0.121,,inactive: 0.015,,inactive: 0.165,inactive: 0,,,inactive: 0.072
CDC25A (UniProt P30304),inactive: 0.016,,inactive: 0.085,,,inactive: 0,,,,inactive: 0.052
CEP295 isoform 3 (UniProt Q9C0D2),inactive: -0.063,,inactive: -0.02,,inactive: 0.051,inactive: -0.092,,inactive: 0.015,inactive: 0.111,inactive: -0.143
CEP72 (UniProt Q9P209),inactive: -0.012,,inactive: -0.015,,,inactive: 0.086,,,,inactive: 0.079
CENPB (UniProt P07199),,,,,,,,inactive: -0.105,inactive: -0.142,
CDC42BPG (UniProt Q6DT37),,,,,,inactive: 0.159,,,,inactive: 0.156
CENPC (UniProt Q03188),inactive: 0.111,,inactive: 0.084,,,inactive: -0.063,,inactive: -0.001,inactive: 0.021,inactive: 0.052
CEP57L1 (UniProt Q8IYX8),inactive: -0.064,,inactive: 0.118,,inactive: -0.021,inactive: -0.041,,inactive: -0.013,inactive: 0.101,inactive: 0.35
CDC42SE1 (UniProt Q9NRR8),,,,,inactive: 0.032,,,,,
CDT1 (UniProt Q9H211),inactive: -0.009,,inactive: 0.067,,inactive: -0.306,inactive: 0.044,,inactive: -0.019,inactive: 0.012,inactive: 0.003
CHAC1 (UniProt Q9BUX1),,inactive: 0.134,,inactive: -0.084,inactive: 0.969,,inactive: 0.031,,,
